# Laboratory results reported in article PMC13316113.
# For at least one entry, the source does not settle the construct or the ends of the probe.
# What was measured:
# PTBP1 [1] = experiment: EMSA; conditions: Kd only in figure, 600 nM is at least 10x Kd; EMSA: 50 mM Tris-HCl pH 7.5 (25 C), 100 mM KCl (or LiCl), 2.5 mM MgCl2, 0.1 mM ZnCl2, 2 mM 2-mercaptoethanol, 0.05 mg/ml BSA, 0.05 mg/ml yeast tRNA, 5% glycerol; recombinant protein; label: 32P
# PTBP1 [2] = experiment: UV crosslinking; conditions: efficient; recombinant protein; label: 32P
sequence,measurement,setting,value
UCUUUCUUCUUUCUUCUUUCUUCUUUCUUCUUUCUUCUUUCU [(UCUUUCU)6],binding result,PTBP1 [1],binds
same,binding result,PTBP1 [2],binds
